Screening data, single-dose tests

By UniProt entry, the sequences of proteins in these tests, tags left out. Residues count along the entry.
UniProt Q4DA54, 1-478: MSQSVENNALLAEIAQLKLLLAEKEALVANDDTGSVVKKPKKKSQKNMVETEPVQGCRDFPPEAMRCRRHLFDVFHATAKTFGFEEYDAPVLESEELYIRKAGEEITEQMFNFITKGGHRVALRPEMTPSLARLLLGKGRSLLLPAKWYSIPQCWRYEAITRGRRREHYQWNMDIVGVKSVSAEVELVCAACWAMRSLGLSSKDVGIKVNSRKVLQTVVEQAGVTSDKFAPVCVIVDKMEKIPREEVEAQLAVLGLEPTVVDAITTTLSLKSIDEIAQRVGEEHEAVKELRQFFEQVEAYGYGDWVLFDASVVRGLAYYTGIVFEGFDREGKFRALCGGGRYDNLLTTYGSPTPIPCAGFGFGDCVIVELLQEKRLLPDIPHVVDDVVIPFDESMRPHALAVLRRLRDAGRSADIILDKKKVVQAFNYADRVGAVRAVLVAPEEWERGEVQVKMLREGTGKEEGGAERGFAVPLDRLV
UniProt P9WNZ1, whole entry: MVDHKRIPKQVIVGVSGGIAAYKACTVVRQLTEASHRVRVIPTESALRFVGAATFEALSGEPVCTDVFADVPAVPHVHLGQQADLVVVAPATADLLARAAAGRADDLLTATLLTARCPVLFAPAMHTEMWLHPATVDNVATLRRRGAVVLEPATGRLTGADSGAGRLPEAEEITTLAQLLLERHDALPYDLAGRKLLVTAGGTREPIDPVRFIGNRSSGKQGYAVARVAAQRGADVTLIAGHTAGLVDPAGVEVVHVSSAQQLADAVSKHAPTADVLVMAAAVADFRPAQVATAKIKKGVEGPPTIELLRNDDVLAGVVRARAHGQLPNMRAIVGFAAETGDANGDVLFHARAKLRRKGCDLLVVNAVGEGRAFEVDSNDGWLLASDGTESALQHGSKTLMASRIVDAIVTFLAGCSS

The values are deposited in ChEMBL (CHEMBL3988442, “University of Dundee, Small-Polar-MMV Screening Library” (2021)).

Toxoplasma: 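Assay of Toxoplasma gondii numbers, read through their beta-galactosidase reporter with a colour substrate. Tested at 10 µM. Higher reads as fewer parasites (inferred from which compounds were picked for retests). About 67,000 compounds were tested under these conditions; 0.38% (about 260) showed 50% or more at least once.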
TcHisRS: 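Histidine-tRNA ligase, Trypanosoma cruzi CL Brener (UniProt Q4DA54). Enzyme assay of histidyl-tRNA synthetase; the read-out is not stated. Compounds at 30 µM. The record gives no direction; compounds that gave an IC50 in retests scored well above the rest, so higher reads as stronger inhibition. About 69,000 compounds were tested under these conditions; 0.045% (about 31) showed 50% or more at least once.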
CoaBC: 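Coenzyme A biosynthesis protein CoaBC, Mycobacterium tuberculosis (UniProt P9WNZ1). Enzyme assay of CoaBC with a phosphate dye (Biomol Green) read at 650 nm. Tested at 30 µM. Higher reads as stronger inhibition, judged from the few compounds that gave an IC50. Most strong results did not repeat in a second test. About 67,000 compounds were tested under these conditions; 0.06% (about 40) showed 50% or more at least once.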
Leishmania in macrophages: 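Cell assay of Leishmania donovani living inside macrophages; the read-out is not stated. Compounds at 30 µM. Direction is inferred from retests: higher values go with stronger inhibition. Of about 69,000 compounds tested this way, about 1,000 (1.5%) reached 50% or more in at least one test.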

Values are the deposited “Percent Effect”, in %.
The controls that fix the scale are not given in the record; negative values are as filed.
This is an unselected part of the compounds tested.
Two or more numbers in one place are separate tests of the same structure; such repeats can differ widely.

Nc1cc(C(=O)N2CCCC3(C=Cc4ccccc4O3)CC2)ccn1 (configuration not stated) gave Toxoplasma: -13.36%; TcHisRS: 5.319%; CoaBC: 9.761%; Leishmania in macrophages: 21.94%. For CC(CNC(=O)c1cn(-c2ccccc2)nn1)Cn1cccn1 (configuration not stated) the result was Toxoplasma: 31.72%; TcHisRS: -1.754%; CoaBC: -2.02%; Leishmania in macrophages: 26.93%. Result for Cc1ccc(S(=O)(=O)N2CCC(N3CCCCC3)CC2)cc1C was Toxoplasma: 0.2528%; TcHisRS: -0.9852%; CoaBC: 3.846%; Leishmania in macrophages: 8.252%. O=C(c1cccc(OCc2cscn2)c1)N1CCOCC1 gave Toxoplasma: 5.399%; TcHisRS: 7.331%; CoaBC: 8.947%; Leishmania in macrophages: 2.31%.

Result for CC(C(=O)NCc1ccnc(N(C)C)c1)n1cncn1 (configuration not stated) was Toxoplasma: 3.347%; TcHisRS: 0%; CoaBC: -0.2132%; Leishmania in macrophages: 37.6%. Cc1nc(O)cc(C2CCN(Cc3ccc(F)c(F)c3)C2)n1.O=C(O)CC(O)(CC(=O)O)C(=O)O (configuration not stated) read Toxoplasma: -9.451%; Leishmania in macrophages: 17.39% & 7.023%. Result for Cc1ccccc1NC(=O)N1CC[C@@H]2CN(C)S(=O)(=O)[C@@H]2CC1 was TcHisRS: 1.942%; CoaBC: 2.545%. CN(Cc1n[nH]c2c1CCC2)C(=O)CCc1cc2n(n1)CCCNC2 read Toxoplasma: 17.63%; TcHisRS: -13.3%; CoaBC: -1.077%; Leishmania in macrophages: 4.652%.

Result for FC(F)(F)c1cc(C2CCCN(c3cnccn3)C2)n2ccnc2n1 (configuration not stated) was Toxoplasma: -1.556%; TcHisRS: 4.286%; CoaBC: 3.196%; Leishmania in macrophages: 18.45%. With [H][C@@]12CCN(C(=O)c3cccnc3OC)C[C@@]1([H])O[C@H](c1nccs1)C2 the screen gave Toxoplasma: -0.2876%; Leishmania in macrophages: 20.09%. COc1cccc(-n2nnc(C(=O)N3CCC(C(N)=O)CC3)c2C)c1 read Toxoplasma: -3.052%; TcHisRS: 2.639%; CoaBC: 8.947%; Leishmania in macrophages: 22.06%. O=C1N(c2ccc(Cl)cc2)Cc2n[nH]c(=O)n21 read Toxoplasma: 0.728%; TcHisRS: 6.173%; CoaBC: -0.4914%; Leishmania in macrophages: 18.21%.

For O=C(Cc1ccn[nH]1)N1CCc2cc(Br)sc2C1 the result was Toxoplasma: 1.873%; TcHisRS: 6.383%; CoaBC: -0.2049%; Leishmania in macrophages: 20.02%. O=C(O)C(F)(F)F.[H][C@@]12CCN(CC(=O)N(C)C)C(=O)[C@@]1([H])CN(C1CCOCC1)C2 read Toxoplasma: -8.965%; Leishmania in macrophages: 16.12%. With COc1ccc(C(=O)N2CCCC(CNS(C)(=O)=O)C2)cc1F (configuration not stated) the screen gave Toxoplasma: 3.504%; TcHisRS: 3.008%; CoaBC: 2.728%; Leishmania in macrophages: 12.57%. Cc1ccccc1-c1noc(CN2CC(n3cccn3)C2)n1 gave Toxoplasma: -4.401%; TcHisRS: -7.563%; CoaBC: 8.423%; Leishmania in macrophages: 22.53%.

Result for Cc1cc(NC(=O)Cn2cc(C#N)c(=O)c3cc(Br)ccc32)no1 was Toxoplasma: -3.194%; TcHisRS: 6.224%; CoaBC: -6.25%; Leishmania in macrophages: 16.56%. Result for CC(C)(C)CC(=O)NCCn1ccc(-c2ccncc2)n1 was Toxoplasma: 15.79%; TcHisRS: -1.205%; CoaBC: 1.018%; Leishmania in macrophages: 5.571% & -20.76%. Result for CC(C)C(NC(=O)NCCNc1ccccn1)c1cccs1 (configuration not stated) was Toxoplasma: 4.659%; TcHisRS: 3.053%; CoaBC: 1.687%; Leishmania in macrophages: 4.985%. CC1=N[C@@]2(CC[C@@H]3CN(C(=O)NCC(C)C)C[C@@H]32)C(=O)N1CC(C)C gave TcHisRS: -0.4975%; CoaBC: 0.3226%.

For CCc1cnccc1C(=O)Nc1ccc(C(N)=O)nc1 the result was Toxoplasma: -0.306%; TcHisRS: 8.287%; CoaBC: -4.464%; Leishmania in macrophages: -9.48%. COCc1ccccc1NC(=O)c1ccoc1 read Toxoplasma: -11.51%; TcHisRS: 5.82%; CoaBC: 4.573%; Leishmania in macrophages: 1.995%.

Once more, the final 2:

CCc1cnccc1C(=O)Nc1ccc(C(N)=O)nc1 gave Toxoplasma: -0.306%; TcHisRS: 8.287%; CoaBC: -4.464%; Leishmania in macrophages: -9.48%.
COCc1ccccc1NC(=O)c1ccoc1 gave Toxoplasma: -11.51%; TcHisRS: 5.82%; CoaBC: 4.573%; Leishmania in macrophages: 1.995%.